For 2 substances, binding results are on record in publication doi:10.1101/2023.11.20.567203.

Amino acid sequences for entries named in this document (tags omitted).
UniProt Q9UKV8: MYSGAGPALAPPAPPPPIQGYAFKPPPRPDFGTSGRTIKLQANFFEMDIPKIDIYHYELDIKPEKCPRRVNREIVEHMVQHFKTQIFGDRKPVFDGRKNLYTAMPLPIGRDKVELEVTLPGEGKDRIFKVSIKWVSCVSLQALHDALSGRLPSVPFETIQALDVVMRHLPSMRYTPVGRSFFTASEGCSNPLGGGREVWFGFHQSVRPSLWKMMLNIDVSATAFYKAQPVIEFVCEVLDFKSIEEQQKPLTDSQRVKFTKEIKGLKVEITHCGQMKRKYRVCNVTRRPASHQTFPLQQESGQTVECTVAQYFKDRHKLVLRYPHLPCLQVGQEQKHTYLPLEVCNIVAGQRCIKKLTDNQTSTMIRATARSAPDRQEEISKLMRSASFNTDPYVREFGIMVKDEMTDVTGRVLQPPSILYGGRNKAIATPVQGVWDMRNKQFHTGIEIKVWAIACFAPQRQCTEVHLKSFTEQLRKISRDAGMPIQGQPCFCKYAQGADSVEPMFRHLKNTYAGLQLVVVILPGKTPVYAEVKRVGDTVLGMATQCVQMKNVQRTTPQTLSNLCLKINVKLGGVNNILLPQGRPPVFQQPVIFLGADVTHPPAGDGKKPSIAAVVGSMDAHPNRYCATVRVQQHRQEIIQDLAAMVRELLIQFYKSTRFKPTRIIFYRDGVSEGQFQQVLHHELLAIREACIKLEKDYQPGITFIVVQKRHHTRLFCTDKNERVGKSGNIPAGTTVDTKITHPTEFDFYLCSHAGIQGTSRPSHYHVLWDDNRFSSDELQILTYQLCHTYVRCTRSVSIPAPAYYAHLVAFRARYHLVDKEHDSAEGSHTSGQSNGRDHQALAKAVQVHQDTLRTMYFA
UniProt Q9UPY3: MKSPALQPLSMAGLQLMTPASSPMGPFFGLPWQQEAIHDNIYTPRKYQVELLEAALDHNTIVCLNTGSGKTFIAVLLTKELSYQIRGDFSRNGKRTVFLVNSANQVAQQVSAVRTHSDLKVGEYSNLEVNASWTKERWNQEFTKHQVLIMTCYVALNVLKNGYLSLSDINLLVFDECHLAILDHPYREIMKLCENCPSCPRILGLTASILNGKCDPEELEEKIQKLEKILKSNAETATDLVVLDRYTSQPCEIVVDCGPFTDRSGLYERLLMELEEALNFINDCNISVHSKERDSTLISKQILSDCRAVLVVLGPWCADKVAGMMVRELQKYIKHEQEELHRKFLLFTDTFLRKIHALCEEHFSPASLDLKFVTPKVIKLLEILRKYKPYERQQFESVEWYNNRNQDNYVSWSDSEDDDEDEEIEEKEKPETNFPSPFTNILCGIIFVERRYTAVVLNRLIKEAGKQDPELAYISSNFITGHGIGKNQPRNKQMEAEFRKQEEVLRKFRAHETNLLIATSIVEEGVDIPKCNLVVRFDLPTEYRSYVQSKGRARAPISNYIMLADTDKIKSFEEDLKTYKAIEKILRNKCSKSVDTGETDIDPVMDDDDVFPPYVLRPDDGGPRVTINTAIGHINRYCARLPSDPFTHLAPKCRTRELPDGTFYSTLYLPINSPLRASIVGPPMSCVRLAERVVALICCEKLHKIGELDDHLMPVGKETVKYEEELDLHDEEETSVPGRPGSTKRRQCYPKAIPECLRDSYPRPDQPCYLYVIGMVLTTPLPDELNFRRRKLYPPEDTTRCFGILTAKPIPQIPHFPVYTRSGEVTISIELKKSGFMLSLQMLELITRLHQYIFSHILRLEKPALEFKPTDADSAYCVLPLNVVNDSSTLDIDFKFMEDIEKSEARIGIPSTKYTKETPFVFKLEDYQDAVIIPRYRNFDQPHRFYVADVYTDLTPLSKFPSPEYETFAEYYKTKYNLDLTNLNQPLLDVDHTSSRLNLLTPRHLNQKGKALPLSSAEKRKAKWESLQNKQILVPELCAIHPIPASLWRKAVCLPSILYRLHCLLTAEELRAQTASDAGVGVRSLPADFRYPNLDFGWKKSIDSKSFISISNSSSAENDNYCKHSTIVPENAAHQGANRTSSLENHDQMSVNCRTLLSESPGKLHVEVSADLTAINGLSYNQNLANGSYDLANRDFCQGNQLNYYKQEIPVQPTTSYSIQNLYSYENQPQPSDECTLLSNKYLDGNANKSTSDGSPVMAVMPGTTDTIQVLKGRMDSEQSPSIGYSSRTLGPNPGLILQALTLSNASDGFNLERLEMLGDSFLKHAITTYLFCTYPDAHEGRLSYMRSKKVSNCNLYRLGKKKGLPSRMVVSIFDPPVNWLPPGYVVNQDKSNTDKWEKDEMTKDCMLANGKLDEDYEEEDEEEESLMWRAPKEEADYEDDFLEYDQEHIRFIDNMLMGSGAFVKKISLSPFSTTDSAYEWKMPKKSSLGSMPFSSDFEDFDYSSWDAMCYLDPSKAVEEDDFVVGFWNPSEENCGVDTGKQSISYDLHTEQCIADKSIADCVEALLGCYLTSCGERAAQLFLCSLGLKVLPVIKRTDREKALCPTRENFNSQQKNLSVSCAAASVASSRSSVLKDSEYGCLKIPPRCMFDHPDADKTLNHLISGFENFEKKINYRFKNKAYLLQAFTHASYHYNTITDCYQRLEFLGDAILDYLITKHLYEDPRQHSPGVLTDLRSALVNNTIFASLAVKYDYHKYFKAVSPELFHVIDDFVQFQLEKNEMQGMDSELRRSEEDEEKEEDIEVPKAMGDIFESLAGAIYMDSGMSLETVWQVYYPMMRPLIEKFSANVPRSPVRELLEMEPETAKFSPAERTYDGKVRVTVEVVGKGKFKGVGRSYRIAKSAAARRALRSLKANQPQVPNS
UniProt Q8NDV7: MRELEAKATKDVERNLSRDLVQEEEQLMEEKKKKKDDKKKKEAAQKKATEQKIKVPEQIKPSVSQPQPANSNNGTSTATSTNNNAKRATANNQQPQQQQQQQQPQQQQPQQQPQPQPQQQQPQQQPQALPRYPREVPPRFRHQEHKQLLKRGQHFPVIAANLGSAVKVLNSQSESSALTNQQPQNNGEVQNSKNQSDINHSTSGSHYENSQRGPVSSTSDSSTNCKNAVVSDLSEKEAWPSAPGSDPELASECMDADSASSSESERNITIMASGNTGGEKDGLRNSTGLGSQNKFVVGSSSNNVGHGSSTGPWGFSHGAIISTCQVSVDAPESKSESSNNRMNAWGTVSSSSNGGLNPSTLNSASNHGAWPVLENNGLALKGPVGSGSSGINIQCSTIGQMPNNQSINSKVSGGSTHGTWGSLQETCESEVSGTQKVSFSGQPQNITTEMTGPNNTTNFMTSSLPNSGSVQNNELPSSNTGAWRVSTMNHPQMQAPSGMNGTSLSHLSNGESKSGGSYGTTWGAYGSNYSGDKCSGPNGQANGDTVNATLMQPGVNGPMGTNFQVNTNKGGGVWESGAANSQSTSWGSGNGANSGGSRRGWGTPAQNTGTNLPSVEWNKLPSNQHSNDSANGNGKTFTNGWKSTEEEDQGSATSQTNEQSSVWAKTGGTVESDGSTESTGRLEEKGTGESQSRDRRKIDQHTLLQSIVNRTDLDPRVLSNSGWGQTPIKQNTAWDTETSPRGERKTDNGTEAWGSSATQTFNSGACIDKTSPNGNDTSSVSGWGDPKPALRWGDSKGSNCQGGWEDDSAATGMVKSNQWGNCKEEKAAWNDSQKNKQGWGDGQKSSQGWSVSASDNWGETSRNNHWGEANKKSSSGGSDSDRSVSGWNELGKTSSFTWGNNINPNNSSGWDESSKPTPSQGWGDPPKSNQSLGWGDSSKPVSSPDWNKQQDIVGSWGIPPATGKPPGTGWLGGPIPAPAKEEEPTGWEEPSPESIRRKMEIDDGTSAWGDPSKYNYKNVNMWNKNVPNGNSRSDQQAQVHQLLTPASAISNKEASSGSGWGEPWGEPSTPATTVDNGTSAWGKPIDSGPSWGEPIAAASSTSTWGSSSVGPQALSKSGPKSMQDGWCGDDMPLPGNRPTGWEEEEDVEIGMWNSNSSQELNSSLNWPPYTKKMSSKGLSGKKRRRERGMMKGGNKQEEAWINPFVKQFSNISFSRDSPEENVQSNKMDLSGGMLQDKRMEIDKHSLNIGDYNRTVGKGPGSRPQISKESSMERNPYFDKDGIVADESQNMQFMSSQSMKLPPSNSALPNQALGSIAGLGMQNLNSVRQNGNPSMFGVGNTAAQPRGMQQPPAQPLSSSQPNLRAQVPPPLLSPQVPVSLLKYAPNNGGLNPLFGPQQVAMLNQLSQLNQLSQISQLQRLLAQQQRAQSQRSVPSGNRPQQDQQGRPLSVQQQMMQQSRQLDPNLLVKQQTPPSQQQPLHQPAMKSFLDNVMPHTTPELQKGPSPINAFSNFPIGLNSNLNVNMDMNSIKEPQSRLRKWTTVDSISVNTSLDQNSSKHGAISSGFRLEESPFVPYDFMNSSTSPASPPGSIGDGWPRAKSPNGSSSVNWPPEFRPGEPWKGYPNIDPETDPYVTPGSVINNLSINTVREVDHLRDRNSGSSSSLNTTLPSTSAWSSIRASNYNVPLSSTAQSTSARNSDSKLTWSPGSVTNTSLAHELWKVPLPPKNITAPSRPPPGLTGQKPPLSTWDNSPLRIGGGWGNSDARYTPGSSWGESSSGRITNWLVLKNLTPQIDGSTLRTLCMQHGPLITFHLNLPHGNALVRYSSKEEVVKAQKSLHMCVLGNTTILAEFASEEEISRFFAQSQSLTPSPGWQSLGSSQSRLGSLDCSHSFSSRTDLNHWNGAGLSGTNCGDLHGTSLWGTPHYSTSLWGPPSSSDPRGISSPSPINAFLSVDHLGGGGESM

The target in this experiment is Argonaute 2 (AGO2), endogenous untagged (human (endogenous in A549)) (UniProt Q9UKV8). In words: co-IP.

Results are given in words; binding and its absence hold for the method and conditions named. Binding seen in cells or lysates may run through a third protein. Some binding calls cover weakened binding; strength is not graded here.

As for “Dicer (from UniProt Q9UPY3 1-1922) (enzyme)”, the binding result is “binds”.

Take TNRC6A (from UniProt Q8NDV7 1-1962): the binding entry was “binds”.
